Results deposited as PubChem BioAssay AID504795 (Drosophila RNAi Screening Center, 2011).

Aim: 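Knock-downs causing abnormal branching, bundling, swelling or growth of cultured neurons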 (primary screen)
System: primary Drosophila neurons and glia
Reagent: long dsRNA against Drosophila genes, 250 ng dsRNA per well
Timing: one week
Detection: 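Descriptive morphology terms assigned by visual inspection of live automated images of GFP-marked cells, taken one week after adding 250 ng dsRNA per well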
The reagents shown are a selection, not the whole library. 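Every listed dsRNA shows some phenotype; how reagents were selected for listing is not stated.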 Names joined by + are all predicted targets of the reagent.

gene | amplicon | phenotype seen, replicate 1 | phenotype seen, replicate 2
sbr | DRSC20368 | abnormal cell clusters | –
par-1 | DRSC07660 | axon bundles split apart | –
RpL36A | DRSC03055 | axon bundles split apart | –
CG6420 | DRSC16035 | reduced axon outgrowth | –
RpS23 | DRSC07169 | axon bundles split apart | –
St4 | DRSC07008 | axon bundles split apart | –
scramb1 | DRSC10667 | cell fragments present | –
Lcp65Af | DRSC11213 | too many neurite branches | –
Pex10 | DRSC08599 | reduced axon outgrowth | –
obst-J | DRSC10821 | reduced axon outgrowth | –
CG9003 | DRSC07317 | axon bundles split apart | –
eIF3e | DRSC11199 | cell fragments present | beaded; swollen axons
CG33203 | DRSC14877 | axon bundles split apart | –
CG9135 | DRSC03144 | reduced axon outgrowth | –
Nup133 | DRSC16150 | too many neurite branches | –
Hakai | DRSC02031 | sheet-like cell extensions | –
CG33474 | DRSC05218 | abnormal cell clusters | –
Pdp1 | DRSC08896 | too many neurite branches | –
nvy | DRSC04705 | axon bundles split apart | –
Polr2H | DRSC11642 | axon bundles split apart | –
CG17328 | DRSC22448 | too many neurite branches | –
CG12003 | DRSC08214 | sheet-like cell extensions | –
Sf3b6 | DRSC09972 | axon bundles split apart | –
CG11686 | DRSC14350 | sheet-like cell extensions | –
Rpt3 | DRSC20283 | axon bundles split apart | –
lok | DRSC03567 | axon bundles split apart | –
CG15109 | DRSC06536 | axon bundles split apart | –
CG14397 | DRSC02381 | cell fragments present | –
MstProx + Mst84Da | DRSC12597 | axon bundles split apart | –
Mcm2 | DRSC16734 | too many neurite branches | –
Vinc | DRSC18728 | cell fragments present | –
CG13744 | DRSC06415 | axon bundles split apart | –
RpL14 | DRSC11269 | beaded; swollen axons | –
RpL10Ab | DRSC10798 | too many neurite branches | –
orb2 | DRSC10541 | axon bundles split apart | –
CG4907 | DRSC15673 | abnormal cell clusters | –
sced | DRSC04990 | too many neurite branches | –
ghi | DRSC08985 | sheet-like cell extensions | –
CG2811 | DRSC04318 | weaker green signal | –
cid | DRSC07592 | too many neurite branches | –
CG14456 | DRSC11713 | abnormal cell clusters | –
CG18507 | DRSC01914 | too many neurite branches | –
CG8773 | DRSC16444 | axon bundles split apart | –
Srg2 + CG42826 | DRSC10682 | cell fragments present | –
Alg13 | DRSC14864 | reduced axon outgrowth | –
Taf1 | DRSC12607 | abnormal cell clusters | –
CG10660 | DRSC09769 | cell fragments present | weaker green signal
hbn | DRSC04238 | too many neurite branches | –
LIMK1 | DRSC19811 | too many neurite branches | –
Nlg4 | DRSC15701 | sheet-like cell extensions | –
KP78a + KP78b | DRSC16721 | abnormal cell clusters | –
CG13218 | DRSC06340 | abnormal cell clusters | –
APP-BP1 | DRSC10920 | reduced axon outgrowth | –
E5 | DRSC16585 | axon bundles split apart | –
Tsp42Ec | DRSC06192 | abnormal cell clusters | –
CG31121 | DRSC15363 | axon bundles split apart | –
eIF1 | DRSC08520 | too many neurite branches | –
Ssdp | DRSC16211 | too many neurite branches | –
p38b | DRSC03586 | axon bundles split apart | –
aPKC | DRSC05515 | axon bundles split apart | –
Akh | DRSC08138 | beaded; swollen axons | –
Ets97D | DRSC16665 | sheet-like cell extensions | –
CG34310 | DRSC00943 | reduced axon outgrowth | –
ave | DRSC05502 | too many neurite branches | –

Continued (9 carried over from the part before).
gene | amplicon | phenotype seen, replicate 1 | phenotype seen, replicate 2
CG31121 | DRSC15363 | axon bundles split apart | –
eIF1 | DRSC08520 | too many neurite branches | –
Ssdp | DRSC16211 | too many neurite branches | –
p38b | DRSC03586 | axon bundles split apart | –
aPKC | DRSC05515 | axon bundles split apart | –
Akh | DRSC08138 | beaded; swollen axons | –
Ets97D | DRSC16665 | sheet-like cell extensions | –
CG34310 | DRSC00943 | reduced axon outgrowth | –
ave | DRSC05502 | too many neurite branches | –
Lint-O | DRSC18468 | too many neurite branches | –
CCDC151 | DRSC10131 | abnormal cell clusters | –
Pits | DRSC19385 | axon bundles split apart | –
SmF | DRSC07397 | abnormal cell clusters | –
Rad51D | DRSC06840 | axon bundles split apart | –
Nadk2 | DRSC07072 | axon bundles split apart | –
CG31663 | DRSC00389 | axon bundles split apart | –
Tif-IA | DRSC03726 | axon bundles split apart | –
CG7031 | DRSC16178 | too many neurite branches | –
Prp6 | DRSC10724 | cell fragments present | –
RpS18 | DRSC07540 | beaded; swollen axons | –
Cks85A | DRSC16562 | axon bundles split apart | –
CG30492 (retired record) + M7BP | DRSC05055 | reduced axon outgrowth | –
CG30492 (retired record) + M7BP | DRSC06816 | axon bundles split apart | –
ubl | DRSC04998 | abnormal cell clusters | –
CG14671 | DRSC12257 | abnormal cell clusters | –
Bcat | DRSC19756 | axon bundles split apart | –
CG12310 | DRSC09878 | abnormal cell clusters | –
Marc | DRSC06614 | axon bundles split apart | –
CG10384 | DRSC03933 | too many neurite branches | –
CG7320 | DRSC10810 | reduced axon outgrowth | –
Dop2R | DRSC20686 | abnormal cell clusters | –
CG14491 | DRSC06462 | too many neurite branches | –
CG42323 | DRSC19629 | too many neurite branches | –
Lsp1alpha | DRSC20258 | axon bundles split apart | –
Klc | DRSC11203 | beaded; swollen axons | –
sigmar | DRSC04449 | axon bundles split apart | –
timeout | DRSC17079 | sheet-like cell extensions | –
CG32085 | DRSC10138 | abnormal cell clusters | –
CG13858 (retired record) | DRSC14708 | too many neurite branches | –
CG8508 | DRSC16436 | abnormal cell clusters | –
fz | DRSC11348 | axon bundles split apart | axon bundles split apart
CG12661 | DRSC17864 | too many neurite branches | –
CG12177 | DRSC19437 | axon bundles split apart | –
gw | DRSC17135 | axon bundles split apart | –
CG32365 | DRSC10041 | weaker green signal | –
CG32365 | DRSC10977 | beaded; swollen axons | –
org-1 | DRSC18810 | abnormal cell clusters | –
CG17575 | DRSC06682 | axon bundles split apart | –
CG4968 | DRSC02794 | axon bundles split apart | –
ena | DRSC07610 | axon bundles split apart | –
CG14341 | DRSC00371 | reduced axon outgrowth | –
trv | DRSC14561 | axon bundles split apart | –
RpS14a | DRSC18710 | axon bundles split apart | –
CG8539 | DRSC21798 | too many neurite branches | –
